# Measurements published in the supplement of paper PMC11732987, “Enantioselective OTUD7B fragment discovery through chemoproteomics screening and high-throughput optimisation” (Communications Chemistry, 2025).
# Chains of the proteins cited; added tags and fusions are not shown. Lines headed by an entry give the natural chain unless they say otherwise; changes in a name come on top. Residues count along the entry.
# UniProt O94830: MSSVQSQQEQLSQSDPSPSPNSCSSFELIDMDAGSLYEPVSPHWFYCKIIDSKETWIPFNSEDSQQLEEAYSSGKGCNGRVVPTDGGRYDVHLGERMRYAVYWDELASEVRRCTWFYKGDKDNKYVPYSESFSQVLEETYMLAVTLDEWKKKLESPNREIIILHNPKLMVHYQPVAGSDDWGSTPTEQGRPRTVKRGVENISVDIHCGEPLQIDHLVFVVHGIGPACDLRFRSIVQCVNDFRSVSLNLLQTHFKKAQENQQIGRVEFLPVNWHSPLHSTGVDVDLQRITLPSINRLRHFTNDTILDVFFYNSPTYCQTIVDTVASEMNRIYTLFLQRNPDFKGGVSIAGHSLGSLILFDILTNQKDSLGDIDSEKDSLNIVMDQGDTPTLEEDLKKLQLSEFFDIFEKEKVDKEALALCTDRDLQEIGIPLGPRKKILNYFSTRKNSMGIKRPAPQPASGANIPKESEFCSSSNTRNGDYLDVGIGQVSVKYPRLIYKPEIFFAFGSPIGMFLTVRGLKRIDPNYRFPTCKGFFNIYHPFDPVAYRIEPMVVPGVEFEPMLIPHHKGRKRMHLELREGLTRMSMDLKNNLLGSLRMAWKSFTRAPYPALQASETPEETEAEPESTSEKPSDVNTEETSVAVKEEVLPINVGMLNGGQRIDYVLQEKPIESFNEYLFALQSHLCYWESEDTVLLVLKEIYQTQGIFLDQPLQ
# UniProt Q16527: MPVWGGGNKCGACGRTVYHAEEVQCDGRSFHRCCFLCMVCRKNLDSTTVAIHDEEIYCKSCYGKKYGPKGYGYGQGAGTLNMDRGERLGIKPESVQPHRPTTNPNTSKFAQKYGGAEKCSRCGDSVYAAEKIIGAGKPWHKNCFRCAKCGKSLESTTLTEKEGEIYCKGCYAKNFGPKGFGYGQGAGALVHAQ
# UniProt P49711, 145-168: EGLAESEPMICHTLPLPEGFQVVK
# UniProt Q5QP82: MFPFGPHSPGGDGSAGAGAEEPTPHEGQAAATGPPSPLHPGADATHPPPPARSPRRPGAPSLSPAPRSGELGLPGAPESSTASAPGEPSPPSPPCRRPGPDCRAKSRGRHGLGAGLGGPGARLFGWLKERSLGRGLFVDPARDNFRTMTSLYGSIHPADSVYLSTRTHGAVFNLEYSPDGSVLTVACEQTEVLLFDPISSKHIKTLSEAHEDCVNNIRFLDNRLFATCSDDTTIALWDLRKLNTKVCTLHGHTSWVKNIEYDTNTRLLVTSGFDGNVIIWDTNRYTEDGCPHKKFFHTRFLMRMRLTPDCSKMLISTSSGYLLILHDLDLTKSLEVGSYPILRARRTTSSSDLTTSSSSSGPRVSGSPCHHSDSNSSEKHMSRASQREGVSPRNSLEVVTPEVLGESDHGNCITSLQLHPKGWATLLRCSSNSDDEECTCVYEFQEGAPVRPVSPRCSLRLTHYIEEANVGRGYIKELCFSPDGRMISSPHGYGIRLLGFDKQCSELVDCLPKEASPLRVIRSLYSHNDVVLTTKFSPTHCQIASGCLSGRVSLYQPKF
# UniProt Q9BUQ8: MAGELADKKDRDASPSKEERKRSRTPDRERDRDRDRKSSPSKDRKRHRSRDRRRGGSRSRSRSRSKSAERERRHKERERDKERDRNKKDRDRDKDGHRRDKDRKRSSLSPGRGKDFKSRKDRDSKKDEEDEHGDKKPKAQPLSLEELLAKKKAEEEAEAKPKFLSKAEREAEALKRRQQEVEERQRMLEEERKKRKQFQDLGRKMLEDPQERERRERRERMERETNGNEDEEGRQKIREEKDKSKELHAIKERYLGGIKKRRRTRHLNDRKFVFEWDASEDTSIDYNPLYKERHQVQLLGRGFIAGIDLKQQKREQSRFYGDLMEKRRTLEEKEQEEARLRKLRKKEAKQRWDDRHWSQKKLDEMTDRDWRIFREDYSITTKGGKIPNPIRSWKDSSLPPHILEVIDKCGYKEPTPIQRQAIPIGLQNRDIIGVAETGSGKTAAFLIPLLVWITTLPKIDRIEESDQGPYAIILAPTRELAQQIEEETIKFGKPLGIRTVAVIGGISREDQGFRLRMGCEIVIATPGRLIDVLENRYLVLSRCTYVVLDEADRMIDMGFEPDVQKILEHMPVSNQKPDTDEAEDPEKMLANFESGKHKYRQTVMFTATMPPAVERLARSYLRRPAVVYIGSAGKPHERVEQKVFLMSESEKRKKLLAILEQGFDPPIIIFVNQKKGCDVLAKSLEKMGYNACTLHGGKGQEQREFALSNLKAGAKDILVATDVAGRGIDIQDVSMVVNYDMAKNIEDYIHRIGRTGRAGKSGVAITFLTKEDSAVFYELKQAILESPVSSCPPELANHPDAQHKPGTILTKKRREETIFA
# UniProt Q9NVP1, 393-412: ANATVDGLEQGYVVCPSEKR
# UniProt P55060: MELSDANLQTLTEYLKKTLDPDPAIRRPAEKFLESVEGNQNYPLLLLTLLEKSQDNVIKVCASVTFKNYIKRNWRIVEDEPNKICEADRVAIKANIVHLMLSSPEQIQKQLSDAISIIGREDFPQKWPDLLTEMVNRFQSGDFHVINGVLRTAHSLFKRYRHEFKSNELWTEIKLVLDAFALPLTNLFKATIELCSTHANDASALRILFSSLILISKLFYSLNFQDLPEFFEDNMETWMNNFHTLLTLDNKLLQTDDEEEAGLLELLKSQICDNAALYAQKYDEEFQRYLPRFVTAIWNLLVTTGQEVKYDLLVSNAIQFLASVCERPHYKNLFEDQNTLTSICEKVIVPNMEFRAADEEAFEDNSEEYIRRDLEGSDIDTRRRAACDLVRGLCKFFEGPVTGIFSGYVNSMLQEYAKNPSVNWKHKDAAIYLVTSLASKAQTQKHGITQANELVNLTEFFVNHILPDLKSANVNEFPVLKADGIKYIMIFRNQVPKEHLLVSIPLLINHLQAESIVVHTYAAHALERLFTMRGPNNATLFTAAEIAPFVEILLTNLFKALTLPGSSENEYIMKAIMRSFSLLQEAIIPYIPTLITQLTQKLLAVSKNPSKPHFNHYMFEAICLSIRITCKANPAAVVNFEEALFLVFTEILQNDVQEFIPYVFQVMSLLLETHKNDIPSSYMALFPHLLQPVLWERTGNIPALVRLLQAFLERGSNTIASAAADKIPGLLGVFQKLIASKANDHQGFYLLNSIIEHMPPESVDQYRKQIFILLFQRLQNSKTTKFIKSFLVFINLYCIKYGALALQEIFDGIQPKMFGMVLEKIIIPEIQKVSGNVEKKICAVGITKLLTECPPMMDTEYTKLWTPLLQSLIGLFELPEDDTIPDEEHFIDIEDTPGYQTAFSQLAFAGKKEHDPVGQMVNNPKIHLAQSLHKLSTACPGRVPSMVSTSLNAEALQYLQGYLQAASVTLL
# UniProt Q13616, whole entry, looked up: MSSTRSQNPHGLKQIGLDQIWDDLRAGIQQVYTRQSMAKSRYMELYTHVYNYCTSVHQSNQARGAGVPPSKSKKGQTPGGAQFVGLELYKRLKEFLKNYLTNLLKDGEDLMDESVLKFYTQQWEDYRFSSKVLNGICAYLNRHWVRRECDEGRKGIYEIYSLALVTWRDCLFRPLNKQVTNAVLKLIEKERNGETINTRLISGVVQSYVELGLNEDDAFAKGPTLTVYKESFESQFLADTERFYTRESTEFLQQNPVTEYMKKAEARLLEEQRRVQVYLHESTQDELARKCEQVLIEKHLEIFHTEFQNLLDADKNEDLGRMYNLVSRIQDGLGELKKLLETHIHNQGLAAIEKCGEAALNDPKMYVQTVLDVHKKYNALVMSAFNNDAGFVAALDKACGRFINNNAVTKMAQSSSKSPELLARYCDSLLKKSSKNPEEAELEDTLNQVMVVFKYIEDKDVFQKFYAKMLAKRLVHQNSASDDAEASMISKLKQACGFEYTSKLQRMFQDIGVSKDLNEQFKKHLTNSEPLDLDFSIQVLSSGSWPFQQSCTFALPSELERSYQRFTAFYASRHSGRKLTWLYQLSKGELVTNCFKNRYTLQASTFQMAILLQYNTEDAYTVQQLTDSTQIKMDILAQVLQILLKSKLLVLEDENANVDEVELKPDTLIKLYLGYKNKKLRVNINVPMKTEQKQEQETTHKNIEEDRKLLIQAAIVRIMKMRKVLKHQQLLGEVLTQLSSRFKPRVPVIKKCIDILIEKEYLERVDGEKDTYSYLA
# UniProt O60716: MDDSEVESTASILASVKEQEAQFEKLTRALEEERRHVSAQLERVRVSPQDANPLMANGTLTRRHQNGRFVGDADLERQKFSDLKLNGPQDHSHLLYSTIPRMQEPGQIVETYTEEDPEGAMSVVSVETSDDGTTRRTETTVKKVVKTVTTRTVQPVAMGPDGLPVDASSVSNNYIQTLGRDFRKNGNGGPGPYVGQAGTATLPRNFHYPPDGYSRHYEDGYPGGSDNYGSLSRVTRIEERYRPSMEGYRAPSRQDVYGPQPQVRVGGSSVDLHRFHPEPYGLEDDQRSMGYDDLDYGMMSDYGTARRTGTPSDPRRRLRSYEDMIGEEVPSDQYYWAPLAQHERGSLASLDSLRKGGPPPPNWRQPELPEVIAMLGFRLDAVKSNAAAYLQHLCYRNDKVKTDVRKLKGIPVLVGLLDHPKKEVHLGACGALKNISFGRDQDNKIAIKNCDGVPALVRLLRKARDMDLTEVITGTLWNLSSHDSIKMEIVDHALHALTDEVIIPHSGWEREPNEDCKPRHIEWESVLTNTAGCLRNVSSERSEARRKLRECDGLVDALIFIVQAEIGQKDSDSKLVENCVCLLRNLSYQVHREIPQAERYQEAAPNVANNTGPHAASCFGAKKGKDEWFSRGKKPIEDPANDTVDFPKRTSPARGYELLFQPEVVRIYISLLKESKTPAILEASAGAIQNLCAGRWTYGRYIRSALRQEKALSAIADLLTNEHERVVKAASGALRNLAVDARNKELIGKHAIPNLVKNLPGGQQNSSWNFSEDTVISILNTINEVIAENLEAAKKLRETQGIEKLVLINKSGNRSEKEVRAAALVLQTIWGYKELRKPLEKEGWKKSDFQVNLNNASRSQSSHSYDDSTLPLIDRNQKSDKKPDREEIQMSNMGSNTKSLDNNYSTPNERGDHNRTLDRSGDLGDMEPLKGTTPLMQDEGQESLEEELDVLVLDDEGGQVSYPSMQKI
# UniProt P61962: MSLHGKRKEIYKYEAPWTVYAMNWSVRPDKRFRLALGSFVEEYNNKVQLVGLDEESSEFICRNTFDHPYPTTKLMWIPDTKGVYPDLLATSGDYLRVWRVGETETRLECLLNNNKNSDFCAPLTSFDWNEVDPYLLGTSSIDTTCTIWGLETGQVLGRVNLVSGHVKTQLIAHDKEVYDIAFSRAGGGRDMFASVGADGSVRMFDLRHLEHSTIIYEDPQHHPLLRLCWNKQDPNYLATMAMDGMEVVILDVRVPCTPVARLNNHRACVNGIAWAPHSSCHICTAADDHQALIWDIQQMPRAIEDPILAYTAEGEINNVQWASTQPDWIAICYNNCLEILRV
# UniProt Q7Z4W1: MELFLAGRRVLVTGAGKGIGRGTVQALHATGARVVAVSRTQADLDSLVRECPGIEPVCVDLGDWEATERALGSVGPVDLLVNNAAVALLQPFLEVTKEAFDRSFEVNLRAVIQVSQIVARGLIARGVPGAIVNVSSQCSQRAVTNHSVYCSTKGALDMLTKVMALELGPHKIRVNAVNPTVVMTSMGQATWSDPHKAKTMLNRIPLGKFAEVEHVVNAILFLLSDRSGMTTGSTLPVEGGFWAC
# UniProt Q9UHQ9: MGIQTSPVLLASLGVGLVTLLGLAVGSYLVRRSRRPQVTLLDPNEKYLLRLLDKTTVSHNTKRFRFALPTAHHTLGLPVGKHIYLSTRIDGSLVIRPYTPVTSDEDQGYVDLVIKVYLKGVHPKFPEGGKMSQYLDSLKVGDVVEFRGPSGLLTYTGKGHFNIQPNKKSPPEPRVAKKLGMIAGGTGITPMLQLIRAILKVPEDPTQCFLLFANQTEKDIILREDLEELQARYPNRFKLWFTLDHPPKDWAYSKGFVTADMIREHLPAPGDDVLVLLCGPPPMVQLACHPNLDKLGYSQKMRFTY
# UniProt P53634: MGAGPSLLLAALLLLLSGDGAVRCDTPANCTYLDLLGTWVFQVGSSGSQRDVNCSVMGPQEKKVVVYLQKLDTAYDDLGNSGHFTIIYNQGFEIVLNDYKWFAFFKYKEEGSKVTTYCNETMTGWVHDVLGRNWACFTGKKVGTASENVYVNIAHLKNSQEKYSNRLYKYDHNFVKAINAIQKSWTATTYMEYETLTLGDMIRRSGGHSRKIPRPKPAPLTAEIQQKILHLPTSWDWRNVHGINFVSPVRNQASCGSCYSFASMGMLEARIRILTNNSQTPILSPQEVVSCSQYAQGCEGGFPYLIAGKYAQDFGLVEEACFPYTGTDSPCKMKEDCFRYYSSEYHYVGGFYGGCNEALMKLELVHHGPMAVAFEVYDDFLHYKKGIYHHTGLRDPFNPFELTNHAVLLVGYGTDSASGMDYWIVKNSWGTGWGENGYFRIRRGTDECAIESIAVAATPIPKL
# This is one part of the list. The data scatter; read single values as rough.
# Compound: ClCC(=O)N[C@H]1CCCc2ccccc12
# Assay: log2 mean competition ratio of IA-DTB cysteine labelling (DMSO/compound) (log2 ratio); higher = stronger cysteine engagement by compound
# Details: 50 µM; treatment time: 4 h; cell line lysate: HEK293T
# Protocol: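 IA-DTB competitive cysteine chemoproteomics in HEK293T RIPA lysate. Lysates were treated with compound 29 or 30 at 50 or 200 µM for 4 h, then IA-DTB (500 µM, 1 h), trypsin-digested, NeutrAvidin-enriched and analysed by diaPASEF. Competition ratio = intensity DMSO / intensity compound (n=4 treated, n=64 DMSO); binding: mean log2 CR ≥ 1 and p ≤ 0.05 plus QC filters. Target is the cysteine site.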
row,Target,log2 mean competition ratio
1,CYFIP1 C428,-0.378
2,DDHD2 C470 (UniProt O94830),-0.242
3,CSRP2 C58 (UniProt Q16527),0.14
4,CTCF C155 (UniProt P49711),0.118
5,DDX39B C198,-0.427
6,CTSB C211 (UniProt P07858),-0.441
7,DCAF10 C213 (UniProt Q5QP82),-0.283
8,CTTNBP2 C1595,-0.301
9,DDX23 C692 (UniProt Q9BUQ8),0.147
10,DDX18 C407 (UniProt Q9NVP1),0.194
11,CSE1L C85 (UniProt P55060),-0.583
12,CUL1 C355 (UniProt Q13616),0.282
13,DAXX C245 (UniProt Q9UER7),0.215
14,CTPS1 C491 (UniProt P17812),-0.107
15,CTNND1 C450 (UniProt O60716),0.0586
16,DCAF7 C109 (UniProt P61962),-0.177
17,DDX6 C390 (UniProt P26196),-0.197
18,DCXR C138 (UniProt Q7Z4W1),-0.336
19,CYB5R1 C208 (UniProt Q9UHQ9),-0.189
20,CTSC C448 (UniProt P53634),-0.275

# Same assay, conditions: 200 µM; treatment time: 4 h; cell line lysate: HEK293T
row,Target,log2 mean competition ratio
1,CYFIP1 C428,-0.518
2,DDHD2 C470 (UniProt O94830),-0.00405
3,CSRP2 C58 (UniProt Q16527),-0.253
4,CTCF C155 (UniProt P49711),-0.22
5,DDX39B C198,0.0405
6,CTSB C211 (UniProt P07858),0.088
7,DCAF10 C213 (UniProt Q5QP82),-0.023
8,CTTNBP2 C1595,-0.231
9,DDX23 C692 (UniProt Q9BUQ8),0.0606
10,DDX18 C407 (UniProt Q9NVP1),-0.181
11,CSE1L C85 (UniProt P55060),-0.0904
12,CUL1 C355 (UniProt Q13616),0.0652
13,DAXX C245 (UniProt Q9UER7),0.093
14,CTPS1 C491 (UniProt P17812),-0.00481
15,CTNND1 C450 (UniProt O60716),0.224
16,DCAF7 C109 (UniProt P61962),-0.0891
17,DDX6 C390 (UniProt P26196),-0.118
18,DCXR C138 (UniProt Q7Z4W1),0.0528
19,CYB5R1 C208 (UniProt Q9UHQ9),0.0204
20,CTSC C448 (UniProt P53634),-0.216
